In doi:10.1101/2025.03.31.646258 one finds binding data, which are given here for two molecules.

What all share (experiment): co-IP
Assay [1] addresses T1, Flag-tagged SNX10 (sorting nexin 10) (UniProt Q9CWT3).
T1 sequence: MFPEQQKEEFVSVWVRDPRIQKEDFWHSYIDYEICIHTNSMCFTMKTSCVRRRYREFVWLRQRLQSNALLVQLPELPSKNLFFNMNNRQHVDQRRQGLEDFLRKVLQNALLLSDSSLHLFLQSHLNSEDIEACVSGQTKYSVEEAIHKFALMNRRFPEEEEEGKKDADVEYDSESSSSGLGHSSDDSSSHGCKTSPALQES

For assay [2], the target named is T2, OSTM1-V5, exogenous in RAW264.7 OCLs (mouse) (UniProt Q8BGT0).
T2 sequence: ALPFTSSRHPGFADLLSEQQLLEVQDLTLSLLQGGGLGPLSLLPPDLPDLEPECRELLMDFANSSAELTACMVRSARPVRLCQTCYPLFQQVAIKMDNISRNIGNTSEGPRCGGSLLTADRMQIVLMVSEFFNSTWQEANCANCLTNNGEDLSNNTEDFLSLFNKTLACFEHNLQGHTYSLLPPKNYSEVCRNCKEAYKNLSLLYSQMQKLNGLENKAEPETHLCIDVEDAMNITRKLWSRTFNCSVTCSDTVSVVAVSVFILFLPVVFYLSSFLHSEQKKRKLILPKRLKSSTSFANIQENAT

Assay [3] deals with T3, SNX10-HA (endogenous SNX10 with a knocked-in C-terminal HA tag) (mouse (endogenous in RAW264.7)) (UniProt Q9CWT3).
T3 sequence: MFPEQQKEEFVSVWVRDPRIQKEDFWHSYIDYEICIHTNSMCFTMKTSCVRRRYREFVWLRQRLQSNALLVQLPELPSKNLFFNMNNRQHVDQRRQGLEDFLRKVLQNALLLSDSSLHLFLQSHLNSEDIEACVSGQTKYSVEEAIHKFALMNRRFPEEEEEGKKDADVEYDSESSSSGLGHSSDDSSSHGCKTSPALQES

These are yes or no findings as the source states them, for the method shown. In cells and extracts the contact can be indirect. Some results given as binding are weak or reduced against the parent protein; the word gives no strength. Sequences can lack the tags named with a protein.

B1: CLC-7 (untagged), expressed in HEK293 cells (protein, UniProt O70496 1-803)
chain: MANVSKKVSWSGRDRDDEEGAPLLRRTGQPDEETPLLNGAGPGARQSHSALFRIGQMNNVELDDELLDPEVDPPHTFPKEIPHNEKLLSLKYESLDYDNSENQLFLEEERRINHTAFRTVEIKRWVICALIGILTGLVACFIDIVVENLAGLKYRVIKDNIDKFTEKGGLSFSLLLWATLNSAFVLVGSVIVAFIEPVAAGSGIPQIKCFLNGVKIPHVVRLKTLVIKVSGVILSVVGGLAVGKEGPMIHSGSVIAAGISQGRSTSLKRDFKIFEYFRRDTEKRDFVSAGAAAGVSAAFGAPVGGVLFSLEEGASFWNQFLTWRIFFASMISTFTLNFVLSIYHGNMWDLSSPGLINFGRFDSEKMAYTIHEIPVFIAMGVVGGILGAVFNALNYWLTMFRIRYIHRPCLQVIEAMLVAAVTATVAFVLIYSSRDCQPLQGSSMSYPLQLFCADGEYNSMAAAFFNTPEKSVVSLFHDPPGSYNPMTLGLFTLVYFFLACWTYGLTVSAGVFIPSLLIGAAWGRLFGISLSYLTGAAIWADPGKYALMGAAAQLGGIVRMTLSLTVIMMEATSNVTYGFPIMLVLMTAKIVGDVFIEGLYDMHIQLQSVPFLHWEAPVTSHSLTAREVMSTPVTCLRRREKVGIIVDVLSDTASNHNGFPVVEDVGDTQPARLQGLILRSQLIVLLKHKVFVERSNMGLVQRRLRLKDFRDAYPRFPPIQSIHVSQDERECTMDLSEFMNPSPYTVPQEASLPRVFKLFRALGLRHLVVVDNHNQVVGLVTRKDLARYRLGKGGLEELSLAQT
For the molecule B1, the binding result in assay [1] was “binds”.

B2: CLC-7, endogenous in RAW264.7 OCLs (protein, UniProt O70496 1-803)
chain: MANVSKKVSWSGRDRDDEEGAPLLRRTGQPDEETPLLNGAGPGARQSHSALFRIGQMNNVELDDELLDPEVDPPHTFPKEIPHNEKLLSLKYESLDYDNSENQLFLEEERRINHTAFRTVEIKRWVICALIGILTGLVACFIDIVVENLAGLKYRVIKDNIDKFTEKGGLSFSLLLWATLNSAFVLVGSVIVAFIEPVAAGSGIPQIKCFLNGVKIPHVVRLKTLVIKVSGVILSVVGGLAVGKEGPMIHSGSVIAAGISQGRSTSLKRDFKIFEYFRRDTEKRDFVSAGAAAGVSAAFGAPVGGVLFSLEEGASFWNQFLTWRIFFASMISTFTLNFVLSIYHGNMWDLSSPGLINFGRFDSEKMAYTIHEIPVFIAMGVVGGILGAVFNALNYWLTMFRIRYIHRPCLQVIEAMLVAAVTATVAFVLIYSSRDCQPLQGSSMSYPLQLFCADGEYNSMAAAFFNTPEKSVVSLFHDPPGSYNPMTLGLFTLVYFFLACWTYGLTVSAGVFIPSLLIGAAWGRLFGISLSYLTGAAIWADPGKYALMGAAAQLGGIVRMTLSLTVIMMEATSNVTYGFPIMLVLMTAKIVGDVFIEGLYDMHIQLQSVPFLHWEAPVTSHSLTAREVMSTPVTCLRRREKVGIIVDVLSDTASNHNGFPVVEDVGDTQPARLQGLILRSQLIVLLKHKVFVERSNMGLVQRRLRLKDFRDAYPRFPPIQSIHVSQDERECTMDLSEFMNPSPYTVPQEASLPRVFKLFRALGLRHLVVVDNHNQVVGLVTRKDLARYRLGKGGLEELSLAQT
With B2, the binding result in assay [2] and in assay [3] was “binds” each time.
